Reference: PMC4847777

Target: T1, RamA (His6-RamA) (UniProt Q8NML3)
T1 sequence (looked up, limits assumed): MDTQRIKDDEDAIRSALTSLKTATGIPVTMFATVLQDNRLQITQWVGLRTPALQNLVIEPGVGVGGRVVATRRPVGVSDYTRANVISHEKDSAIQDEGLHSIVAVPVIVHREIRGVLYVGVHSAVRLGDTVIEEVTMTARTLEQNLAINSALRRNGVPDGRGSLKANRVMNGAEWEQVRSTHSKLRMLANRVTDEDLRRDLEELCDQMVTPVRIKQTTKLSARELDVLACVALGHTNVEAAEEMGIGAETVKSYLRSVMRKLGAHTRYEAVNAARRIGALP
Test: EMSA
Settings: poly[d(I-C)], 10 mM Tris, 1 mM dithioerythritol, 1 mM EDTA, 1 ug poly[d(I-C)], 10% glycerol, about 70 ng DNA, 20 min at room temperature, pH not stated, recombinant protein, protein details: His6 (pET28-ramA), probe letters rebuilt from the primers and the genome

“ACGCGAGCAGCGCCTCCACCGTATCCGGCACCTCGCCGGCATGCTTTTCGACGATCACCTCCGCACATTCCTTCAACCTCAGCGCCCTACGTGGATAGCCCAACTTGCCCCACGACCGCAAAATCTCATCGGTGCTCGCATTCGCGAAATCTTCCGGAGTGGGCCATTTTTCCATCCACTCACGCCAAATCGGCTCGACTCGCGCGACGGGAGTTTGTTGGCTCATCACCTCTGAAAGGAGAATTCCCCATGCTGAAGTATTGGGATCACGCCACGCAAGATCGCGGGCATTTGCTCTAAACCACACGAGCAGGGCTGTTTGAAAAGCTGTAAATGACATGACCTAAATGATTGTACTGACTGGCACTTTAGGTCATATGTCACACCGAGTGGAATAATAAAGCTTATGCCTTTGCGTAATGTTGAGGTACCCCG (double strand) [PF1]”: binds more weakly (less retardation with 2 ug RamA, 20 ul).
“CGGGGTACCTCAACATTACGCAAAGGCATAAGCTTTATTATTCCACTCGGTGTGACATATGACCTAAAGTGCCAGTCAGTACAATCATTTAGGTCATGTCATTTACAGCTTTTCAAACAGCCCTGCTCGTGTGGTTTAGAGCAAATGCCCGCGATCTTGCGTGGCGTGATCCCAATACTTCAGCATGGGGAATTCTCCTTTCAGAGGTGATGAGCCAACAAACTCCCGTCGCGCGAGTCGAGCCGATTTGGCGTGAGTGGATGGAAAAATGGCCCACTCCGGAAGATTTCGCGAATGCGAGCACCGATGAGATTTTGCGGTCGTGGGGCAAGTTGGGCTATCCACGTAGGGCGCTGAGGTTGAAGGAATGTGCGGAGGTGATCGTCGAAAAGCATGCCGGCGAGGTGCCGGATACGGTGGAGGCGCTGCTCGCGTTGCCGGGGATCGGTGATTACACGGCGCGCGCGGTCGCGGCGTTTCATTTTGGGCAGCGCGTGCCGGTGGTCGATACGAACGTGCGTCGCGTGTAGTCGACGCGT (double strand) [Pbca (bca promoter fragment)]”: binds (0.8-2 ug RamA in 20 ul).
“CGGGGTACCTCAACATTACGCAAAGGCATAAGCTTTATTATTCCACTCGGTGTGACATATGACCTAAAGTGCCAGTCAGTACAATCATTTAGGTCATGTCATTTACAGCTTTTCAAACAGCCCTGCTCGTGTGGTTTAGAGCAAATGCCCGCGATCTTGCGTGGCGTGATCCCAATACTTCAGCATGGGGAATTCTCCTTTCAGAGGTGATGAGCCAACAAACTCCCGTCGCGCGAGTCGAGCCGATTTGGCGTGAGTGGATGGAAAAATGGCCCACTCCGGAAGATTTCGCGAATGCGAGCACCGATGAGATTTTGCGG (double strand) [PF2]”: no binding (no significant retardation up to 2 ug RamA, 20 ul).

For at least one entry, the source does not settle the construct or the ends of the probe. Negatives hold for the conditions tested. Protein sequences can lack the tags named with them. The comparison behind a weaker result is the experiment's own reference, which may not be listed here.
